Literature values as cited in US12168006B2, “Cancer therapy by degrading dual MEK signaling” (The Board of Trustees of the University of Illinois, priority 2017, dated 2024).
At least one compound was matched to its structure with a doubt left.

Protein sequences, listed by entry. Tags and fused reporters are not part of them. Lines headed by an entry give the natural chain unless they say otherwise; changes in a name come on top.
UniProt P06241, whole entry, species assumed: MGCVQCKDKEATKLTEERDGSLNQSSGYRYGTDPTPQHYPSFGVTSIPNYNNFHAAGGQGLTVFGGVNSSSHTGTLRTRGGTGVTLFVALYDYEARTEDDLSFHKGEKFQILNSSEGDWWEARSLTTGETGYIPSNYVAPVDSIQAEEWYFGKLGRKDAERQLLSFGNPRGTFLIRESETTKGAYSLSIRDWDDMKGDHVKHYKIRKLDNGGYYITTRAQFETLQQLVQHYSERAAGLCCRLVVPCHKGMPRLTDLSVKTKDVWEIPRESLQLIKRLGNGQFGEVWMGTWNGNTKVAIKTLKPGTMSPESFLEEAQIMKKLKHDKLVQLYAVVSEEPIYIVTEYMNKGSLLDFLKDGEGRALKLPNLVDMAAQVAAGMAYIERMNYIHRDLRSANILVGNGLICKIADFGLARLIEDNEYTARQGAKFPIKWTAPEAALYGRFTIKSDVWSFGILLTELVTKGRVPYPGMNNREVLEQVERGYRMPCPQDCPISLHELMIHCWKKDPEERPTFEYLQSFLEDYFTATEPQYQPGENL
UniProt Q05655: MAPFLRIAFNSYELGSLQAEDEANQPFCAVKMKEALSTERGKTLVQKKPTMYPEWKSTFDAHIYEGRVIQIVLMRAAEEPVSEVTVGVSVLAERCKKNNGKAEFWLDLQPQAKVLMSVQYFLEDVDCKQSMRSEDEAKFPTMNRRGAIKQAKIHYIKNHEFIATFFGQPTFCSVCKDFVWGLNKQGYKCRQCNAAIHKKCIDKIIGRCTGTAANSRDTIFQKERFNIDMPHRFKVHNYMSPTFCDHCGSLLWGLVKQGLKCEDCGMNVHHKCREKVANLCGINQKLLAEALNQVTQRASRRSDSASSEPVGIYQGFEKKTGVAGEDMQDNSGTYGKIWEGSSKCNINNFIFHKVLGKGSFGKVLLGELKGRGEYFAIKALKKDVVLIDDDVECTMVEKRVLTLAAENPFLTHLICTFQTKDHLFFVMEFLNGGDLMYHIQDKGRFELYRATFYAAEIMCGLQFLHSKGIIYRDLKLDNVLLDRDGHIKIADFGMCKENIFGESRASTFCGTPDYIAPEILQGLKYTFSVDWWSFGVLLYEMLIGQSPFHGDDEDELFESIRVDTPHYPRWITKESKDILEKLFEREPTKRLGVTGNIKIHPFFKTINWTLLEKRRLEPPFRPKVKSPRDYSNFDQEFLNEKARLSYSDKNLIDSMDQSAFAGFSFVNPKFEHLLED
UniProt P62136, whole entry: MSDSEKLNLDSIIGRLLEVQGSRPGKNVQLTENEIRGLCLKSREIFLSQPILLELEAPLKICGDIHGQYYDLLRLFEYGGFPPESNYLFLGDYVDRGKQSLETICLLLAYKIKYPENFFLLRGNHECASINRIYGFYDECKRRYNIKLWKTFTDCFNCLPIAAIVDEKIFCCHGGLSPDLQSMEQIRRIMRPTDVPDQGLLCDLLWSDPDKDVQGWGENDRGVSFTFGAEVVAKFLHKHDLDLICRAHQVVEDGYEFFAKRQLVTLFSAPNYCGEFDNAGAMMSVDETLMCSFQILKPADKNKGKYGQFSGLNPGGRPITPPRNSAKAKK
UniProt P29350: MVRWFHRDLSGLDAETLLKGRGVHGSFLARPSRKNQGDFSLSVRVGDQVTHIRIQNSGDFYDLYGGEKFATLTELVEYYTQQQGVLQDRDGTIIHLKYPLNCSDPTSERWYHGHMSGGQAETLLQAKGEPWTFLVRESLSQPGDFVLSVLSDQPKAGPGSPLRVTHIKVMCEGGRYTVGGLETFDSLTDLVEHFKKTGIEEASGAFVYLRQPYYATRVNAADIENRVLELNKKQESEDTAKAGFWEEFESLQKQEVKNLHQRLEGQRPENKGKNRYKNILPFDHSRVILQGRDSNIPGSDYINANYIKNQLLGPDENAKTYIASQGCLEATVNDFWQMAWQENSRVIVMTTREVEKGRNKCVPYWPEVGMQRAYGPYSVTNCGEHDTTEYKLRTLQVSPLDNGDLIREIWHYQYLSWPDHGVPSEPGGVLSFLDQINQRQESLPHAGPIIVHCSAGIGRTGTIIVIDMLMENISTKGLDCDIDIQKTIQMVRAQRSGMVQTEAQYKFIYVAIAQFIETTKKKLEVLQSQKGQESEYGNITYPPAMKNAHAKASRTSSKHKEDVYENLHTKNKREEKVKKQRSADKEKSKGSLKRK
UniProt P07948, whole entry, species assumed: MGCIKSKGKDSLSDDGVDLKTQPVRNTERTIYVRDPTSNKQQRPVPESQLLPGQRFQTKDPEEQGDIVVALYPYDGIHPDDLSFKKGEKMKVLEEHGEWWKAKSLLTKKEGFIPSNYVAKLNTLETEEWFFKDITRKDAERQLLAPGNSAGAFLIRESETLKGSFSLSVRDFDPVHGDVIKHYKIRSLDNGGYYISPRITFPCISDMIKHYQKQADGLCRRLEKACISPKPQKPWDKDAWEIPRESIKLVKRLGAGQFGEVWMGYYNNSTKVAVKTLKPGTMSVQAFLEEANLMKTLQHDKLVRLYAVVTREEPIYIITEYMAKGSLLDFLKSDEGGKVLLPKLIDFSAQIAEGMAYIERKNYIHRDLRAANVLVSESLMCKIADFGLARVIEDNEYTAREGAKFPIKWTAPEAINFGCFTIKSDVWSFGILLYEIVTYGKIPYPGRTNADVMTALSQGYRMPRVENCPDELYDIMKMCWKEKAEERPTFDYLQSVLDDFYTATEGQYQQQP

Assays:
[1] = molecular target: Fyn (Homo sapiens, UniProt P06241); conditions: at 1 μM; cited from earlier work
[2] = molecular target: PKCδ (Homo sapiens, UniProt Q05655); conditions: at 1 μM; cited from earlier work
[3] = molecular target: PP1α (Homo sapiens, UniProt P62136); conditions: cited from earlier work
[4] = molecular target: SHP1 (Homo sapiens, UniProt P29350); conditions: cited from earlier work
[5] = molecular target: T1, PKCζ (Homo sapiens, UniProt Q05513); conditions: at 1 μM; cited from earlier work
T1 sequence (Q05513 1-592): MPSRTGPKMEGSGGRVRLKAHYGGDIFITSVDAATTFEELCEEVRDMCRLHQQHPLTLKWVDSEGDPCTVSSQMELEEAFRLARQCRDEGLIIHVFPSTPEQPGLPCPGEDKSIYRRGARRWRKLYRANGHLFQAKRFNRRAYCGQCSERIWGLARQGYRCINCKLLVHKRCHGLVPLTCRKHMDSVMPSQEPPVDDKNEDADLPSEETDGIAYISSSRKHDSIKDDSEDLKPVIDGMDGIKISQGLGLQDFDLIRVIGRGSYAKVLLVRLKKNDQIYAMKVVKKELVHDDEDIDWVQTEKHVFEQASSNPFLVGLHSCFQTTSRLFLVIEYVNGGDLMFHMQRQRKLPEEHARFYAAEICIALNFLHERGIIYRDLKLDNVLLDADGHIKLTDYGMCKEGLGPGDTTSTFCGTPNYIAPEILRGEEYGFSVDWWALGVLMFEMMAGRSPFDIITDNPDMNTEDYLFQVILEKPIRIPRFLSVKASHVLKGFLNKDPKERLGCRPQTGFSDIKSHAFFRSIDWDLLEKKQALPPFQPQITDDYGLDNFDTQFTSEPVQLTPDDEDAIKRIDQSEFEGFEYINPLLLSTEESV

[6] = molecular target: Lyn (Homo sapiens, UniProt P07948); conditions: cited from earlier work
[7] = tested on: MEK1/2 and ERK1/2 phosphorylation; conditions: mutant BRAF melanoma cells; previous report; cited from earlier work

Compound	% Inhibition of Fyn [1] [% at 1 μM]	% Inhibition of PKCδ [2] [% at 1 μM]	Inhibition of PP1α (in words) [3]	Inhibition of SHP1 (in words) [4]	% Inhibition of PKCζ [5] [% at 1 μM]	Inhibition of Lyn (in words) [6]	duration of the effect in inhibiting MEK1/2 phosphorylation [7] [h]
CCCS(=O)(=O)Nc1ccc(F)c(C(=O)c2c[nH]c3ncc(-c4ccc(Cl)cc4)cc23)c1F [Vemurafenib]	<20	<20	Not observed	Not observed	<20	Not observed	
CC(=O)Nc1cccc(-n2c(=O)n(C3CC3)c(=O)c3c(Nc4ccc(I)cc4F)n(C)c(=O)c(C)c32)c1 [trametinib]							6
